Measured values: publication PMC8352872, “Biochemical and structural studies of target lectin SapL1 from the emerging opportunistic microfungus Scedosporium apiospermum” (Scientific Reports, 2021)
No constants are given. Whether binding was seen depends on the method and setting. Some entries that bind do so weakly or less than the wild type.

Target: Scedosporium apiospermum Lectin 1 (SapL1), carbohydrate recognition domain, residues 75-369 (Scedosporium apiospermum)
Experiment: crystal structure; co-crystallised with alpha-methyl-fucoside; 100 mM Bicine pH 8.5, 1.5 M ammonium sulfate, 12% glycerol, 19 °C; space group P2(1), two monomers in the asymmetric unit; both purified

B1: Scedosporium apiospermum Lectin 1 (SapL1), carbohydrate recognition domain, residues 75-369 (domain or fragment)
chain: MSGVLQISFPAGIAAIRNNSSLRVYEAALDGGVREAQYEGRWAGGKPDNVIATGKIGTPIAATSVGFQYIRVYYVGADNKAREACWDGKGWYTGAFVKDVAPYSSIGAVFLGKNIVVRVYTQNHDNTIQEWVWDSPSTGWTAGANFGAALPGTAIAATSWGAGPYHIRVYFQDTNRNVIESGWDGSGWYTGGLKISNQSPRASLGATSWGESGSSLGIRLYYATQDNLIKEKAWDGGGGWYDGGFQQRSIPGSRVAAIPLPVLRVYLQNGTEVSGITEYAWNSGWVVGQAVLPPA
notes: the first 74 residues of the annotated protein, which the authors suspect to be a misannotation, are left out; In the crystal all 295 amino acids are visible except the N-terminal methionine; also called hypothetical protein XP_016640003.1; source: E. coli BL21trxB (DE3), pProNde vector, purified (IMAC, TEV cleavage, second His-trap pass); not shown: His6, N-terminal, cleaved
  binding: binds
